Measured values from PubChem BioAssay AID1259415 (National Center for Advancing Translational Sciences (NCATS), 2018).
Hit rate of the full screen: of about 410,000 compounds, about 18,000 (4.4%) were called active. Inconclusive results, whose numbers are uncertain, are shown with a selection of clear calls. Rule as the data show it: active = activity change below about -60%; inconclusive = no clear call, values can overlap the other calls; inactive = above about -39%.

Experiment: qHTS Assay for inhibitors of the human cytomegalovirus (HCMV)
Conditions: HFF cells, HCMV-luciferase reporter, 72 h; at 57.5 µM; hits give low values
In short: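 Inhibition of viral replication was scored as loss of reporter luminescence in HFFs infected with HCMV-luciferase (MOI 1 PFU/cell) for 72 h; compounds tested at 2 doses, normalized to buffer and Salinomycin controls.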
% is scaled to controls: 0 for no effect and ±100 for the full control effect.

Q: Which activity change, negative = inhibition does the source give for `CN1C(=O)c2ccccc2Sc2ccc(NC(=O)N3CCOCC3)cc21` here?
A: inactive: 32.8%

Q: Which activity change, negative = inhibition does the source give for `COc1ccc(NC(=S)Nc2ccc3cn[nH]c3c2)cc1` here?
A: inconclusive: -41.5%

Q: With `Cc1ccc(CSCCNC(=O)c2ccccc2)cc1` as the compound, how does the activity change, negative = inhibition read?
A: inconclusive: -53.8%

Q: For `O=C(NNC(=O)C1CCN(S(=O)(=O)c2ccc(Cl)cc2)CC1)c1ccccc1O`, which activity change, negative = inhibition is on record?
A: inactive: -32.3%

Q: Which activity change, negative = inhibition does the source give for `O=C(N/N=C1\CCCc2ccccc21)c1ccccc1Cl` here?
A: inactive: 48.1%

Q: Which activity change, negative = inhibition does the source give for `CCOCCCNC(=O)CN1C(=O)c2c(c3ccccc3n2C)C1c1ccc(OC)cc1` (centres undefined) here?
A: inconclusive: 0%

Q: Which activity change, negative = inhibition does the source give for `Cn1nnnc1SCCNCc1ccccc1OCc1ccccc1` here?
A: inconclusive: -41.1%

Q: For `COc1cccc(/C=C/C(=O)OC(C)C(=O)Nc2c(C)n(C)n(-c3ccccc3)c2=O)c1` (centres undefined), which activity change, negative = inhibition is on record?
A: inconclusive: -47.3%

Q: Which activity change, negative = inhibition does the source give for `Cc1ccccc1S(=O)(=O)NC(=O)C1(C)CCN1C(=O)C/C=C/c1ccccc1` (centres undefined) here?
A: inactive: -36.3%

Q: For `CN(C)c1ccccc1C(=O)c1ccccc1N(C)C`, which activity change, negative = inhibition is on record?
A: inactive: 74.9%

Q: With `CC(C)(c1ccc(O)cc1)c1ccc(O)c(C(=O)O)c1` as the compound, how does the activity change, negative = inhibition read?
A: inactive: 15.3%

Q: With `COc1ccc(Oc2ncccc2[N+](=O)[O-])cc1` as the compound, how does the activity change, negative = inhibition read?
A: inactive: 14.2%

Q: With `CCN(CC)c1ncnc2scc(C3COc4ccccc4O3)c12` (centres undefined) as the compound, how does the activity change, negative = inhibition read?
A: inconclusive: -44%

Q: For `Cc1ccc(-c2nc3c(c(=O)c4ccccc4n3C)c(=O)n2-c2ccccc2)cc1`, which activity change, negative = inhibition is on record?
A: inconclusive: -52.3%

Q: With `COc1ccc(/C(C)=N/NC(=O)CNC(=O)c2ccncc2)c(OC)c1` as the compound, how does the activity change, negative = inhibition read?
A: inconclusive: -59.1%

Q: Which activity change, negative = inhibition does the source give for `COc1ccc(-c2c(=O)n(OC)c3ccccc3[n+]2[O-])cc1OC` here?
A: inconclusive: -47.5%

Q: Which activity change, negative = inhibition does the source give for `Cc1ccc(N2CN=c3s/c(=C\c4cccnc4)c(=O)n3C2)cc1` here?
A: active: -69%

Q: Which activity change, negative = inhibition does the source give for `CCn1cc(CN2CCC(C(=O)Nc3cccc(-c4cccc(F)c4)c3)CC2)cn1` here?
A: active: -62.6%

Q: Which activity change, negative = inhibition does the source give for `CN(Cc1ccccc1)C(=O)c1cc2c(s1)-c1ccc(Cl)cc1SC2` here?
A: inactive: 14.7%

Q: For `CCN1CCN(C(=O)c2cc(COc3ccc(F)cc3F)on2)[C@@H](C)C1=O`, which activity change, negative = inhibition is on record?
A: inconclusive: -53.1%

Q: Which activity change, negative = inhibition does the source give for `CCOc1ccc(CNC(=O)Cn2c(=O)c3cccn3c3ccc(F)cc32)cc1OC` here?
A: inactive: 38.2%

Q: For `O=C(Nc1cc(Cl)ccc1N1CCOCC1)c1ccc2c(c1)OCCO2`, which activity change, negative = inhibition is on record?
A: inconclusive: -55.5%

Q: Which activity change, negative = inhibition does the source give for `CC(C)c1nc(SCC(=O)Nc2nccs2)c2ccccc2n1` here?
A: inconclusive: -59.7%

Q: For `COc1cc(NS(=O)(=O)c2ccc(NC(=O)c3ccc(OC)c(Br)c3)cc2)nc(OC)n1`, which activity change, negative = inhibition is on record?
A: inactive: 42.2%

Q: For `CCOc1ccccc1CSc1nc2ccccc2[nH]1`, which activity change, negative = inhibition is on record?
A: inconclusive: -40.1%

Q: Which activity change, negative = inhibition does the source give for `COc1cc(C(=O)Nc2ccc(S(=O)(=O)Nc3nccc(C)n3)cc2)c([N+](=O)[O-])cc1OC` here?
A: inconclusive: -42.6%

Q: Which activity change, negative = inhibition does the source give for `Cc1ccc(-c2nn3c(=O)cc(CN4CCN(C(=O)c5ccc(C(C)(C)C)cc5)CC4)nc3s2)cc1` here?
A: inactive: 2.43%

Q: With `CC1(C)CCC(=O)N2CC[C@H]3C[C@H](OC(=O)Nc4ccc(Br)cc4)C[C@@H]1[C@H]32` as the compound, how does the activity change, negative = inhibition read?
A: active: -101%

Q: Which activity change, negative = inhibition does the source give for `O=C(NNC(=O)c1cccc2ccccc12)c1ccc(Br)cc1` here?
A: inactive: -23.9%

Q: For `CCC1=C(c2ccc(C)cc2)S(=O)(=O)N=C1N1CCC(C(=O)NCc2ccc(C)cc2)CC1`, which activity change, negative = inhibition is on record?
A: inactive: 8.92%

Q: With `CCOC(=O)c1ccc2nc(C)c(CC)c(Cl)c2c1` as the compound, how does the activity change, negative = inhibition read?
A: inconclusive: -47.1%

Q: Which activity change, negative = inhibition does the source give for `COc1ccc(CN2C3CCCC2CC(NC(=O)Nc2ccccc2C)C3)cc1` (centres undefined) here?
A: inactive: 0.421%

Q: With `COc1ccc([N+](=O)[O-])cc1NC(=O)CSCc1ccc(Br)cc1` as the compound, how does the activity change, negative = inhibition read?
A: inactive: 14.7%

Q: For `COc1ccccc1N1CCN(C(=O)CSc2nnc3n2C(C)(C)Cc2ccccc2-3)CC1`, which activity change, negative = inhibition is on record?
A: active: -91.8%

Q: For `OCCN(CCO)CC(O)COc1ccc(C23CC4CC(CC(C4)C2)C3)cc1` (centres undefined), which activity change, negative = inhibition is on record?
A: active: -62%

Q: Which activity change, negative = inhibition does the source give for `Cc1ccc(C(=O)O/N=C/c2c(C(F)(F)F)nn(C)c2Sc2ccc(Cl)cc2)cc1` here?
A: inconclusive: -51.6%

Q: For `CCn1c(O)c(N=NC(=O)c2ccc(CSc3nncn3C)cc2)c2ccccc21`, which activity change, negative = inhibition is on record?
A: inconclusive: -47.6%

Q: Which activity change, negative = inhibition does the source give for `Cc1c(C(=O)NCc2ccc([N+](=O)[O-])cc2)sc(=O)n1Cc1ccc2c(c1)OCO2` here?
A: inactive: 68.5%

Q: With `CCC(C(=O)N1CCc2ccccc2C1)n1nc(C)n2c(cc3occc32)c1=O` (centres undefined) as the compound, how does the activity change, negative = inhibition read?
A: inconclusive: -52.4%

Q: For `Cc1nnc(Nc2ccc(C(=O)O)cc2)[nH]c1=O`, which activity change, negative = inhibition is on record?
A: inconclusive: -42.5%

Q: For `O=C(CSc1nc(-c2ccccc2)c(-c2ccccc2)[nH]1)Nc1nccs1`, which activity change, negative = inhibition is on record?
A: inconclusive: -51.7%

Q: Which activity change, negative = inhibition does the source give for `COc1ccc(S(=O)(=O)N2CCN(C(=O)c3ccccc3Cc3ccccc3)CC2)cc1OC` here?
A: inactive: -28.8%

Q: For `Cc1sc2nc(CSc3nnnn3-c3ccc(Cl)cc3)[nH]c(=O)c2c1C`, which activity change, negative = inhibition is on record?
A: inconclusive: -41.4%

Q: Which activity change, negative = inhibition does the source give for `O=C(Nc1ccc(NC(=S)NC(=O)c2ccccc2F)cc1)c1cccs1` here?
A: inconclusive: -52.5%

Q: With `Cc1noc(C)c1S(=O)(=O)N(CC(=O)Nc1ccc2c(c1)OCCO2)c1ccc(C(C)C)cc1` as the compound, how does the activity change, negative = inhibition read?
A: inconclusive: -56.7%

Q: For `CCCc1c(C(=O)N/N=C/C(C)=C/c2ccco2)nnn1-c1nonc1N`, which activity change, negative = inhibition is on record?
A: inconclusive: -48.6%

Q: Which activity change, negative = inhibition does the source give for `CC1CCN(c2c(NCc3ccc(C(=O)NCCc4ccc(Cl)cc4)cc3)c(=O)c2=O)CC1` here?
A: inconclusive: -42.2%

Q: Which activity change, negative = inhibition does the source give for `CCCn1cc(S(=O)(=O)c2ccc(C)cc2)c(=O)c2cc(OCC)ccc21` here?
A: inconclusive: -40.1%

Q: With `CN1CCN(c2ccc(-c3ccc4ccccc4n3)cc2)CC1` as the compound, how does the activity change, negative = inhibition read?
A: active: -92.1%

Q: With `CCCS(=O)(=O)NC(=O)C1(C)CCN(C(=O)c2c(F)ccc(C)c2F)C1` (centres undefined) as the compound, how does the activity change, negative = inhibition read?
A: inconclusive: -56%

Q: With `O=C(NCc1ccc2c(c1)OCO2)C1CCC(CNS(=O)(=O)c2cccc3nsnc23)CC1` (centres undefined) as the compound, how does the activity change, negative = inhibition read?
A: inconclusive: -57.5%

Q: Which activity change, negative = inhibition does the source give for `O=C1CC(N2CCN(Cc3ccc4c(c3)OCO4)CC2)C(=O)N1Cc1ccc(N2CCCC2=O)cc1` (centres undefined) here?
A: inactive: 17.6%

Q: With `CC1CN(S(=O)(=O)c2ccc(C(=O)Nc3nnc(-c4ccccn4)o3)cc2)CC(C)O1` (centres undefined) as the compound, how does the activity change, negative = inhibition read?
A: inconclusive: -44.4%

Q: For `Cc1cccc(-n2c(SCC(=O)Nc3cccc(S(=O)(=O)NC4=NCCCCC4)c3)nc3ccccc3c2=O)c1C`, which activity change, negative = inhibition is on record?
A: inconclusive: -52.9%
